The nature of this test: qHTS Assay for Lipid Storage Modulators in Drosophila S3 Cells.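 As to cell number change: cells counted by Cell Tracker Red CMTPX staining in the red channel.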 To be noted: BODIPY lipid droplet fluorescence, 18-24 h; for cell number change: measured here: cell count max response, cells fed with added oleic acid. A digest of the protocol:
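Drosophila S3 cells got compounds at several concentrations plus oleic acid (400 uM solution). Laser-scanning cytometry with 488 nm excitation read lipid droplets at 500-530 nm and cells at 575-640 nm. Percent activity was relative to 20 uM Triacsin C.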

[1] abbreviates: measured here: lipid fluorescence (Fed channel) AC50, cells fed with added oleic acid.
[2] abbreviates: measured here: cell number channel AC50, cells fed with added oleic acid.

For orientation: AC50 means the concentration at which the activity in the assay is half-maximal. The low end stands for greater potency, the high end for weaker potency.

The other results are listed elsewhere or left out. The main result of the screen is listed elsewhere. These columns were measured beside it and carry no call. Most of these compounds were active or inconclusive in the main read-out, so they are no random draw. Potencies come from curve fits of mixed quality, noted in brackets.

For `Cc1ccc(/C=C(\NC(=O)c2ccccc2)C(=O)NCCN2CCOCC2)o1`, the cell number change was 20.7%. Also, under setting [1], the AC50 was 1.84 µM [rising, partial curve].
Turning to `Cc1ccccc1Oc1ncnc2sccc12`, the cell number change is -6.88%.
The same measure, in the same setting: with `O=C(CN1CCCCCC1)N/N=C/c1cccc(Cl)c1Cl` the figure was -0.123%; with `O=C(Cc1ccc(Cl)cc1)NCCS(=O)(=O)N1CCN(c2ccccc2F)CC1`, 19%.
Take `CCN(CC)Cc1c(O)ccc2c(=O)c(-c3ccc4c(c3)OCCO4)coc12`: the cell number change was -50.8%. Also, the AC50 under setting [2] was 29.1 µM [falling, partial curve, poor fit].
Regarding `COC(=O)c1sccc1NC(=O)Cn1nnc(-c2ccc(C)cc2)n1`, the half-maximal activity concentration (AC50) is 2.31 µM [rising, partial curve] under setting [2] and 2.31 µM [rising, partial curve] under setting [1].
Turning to `CCOc1cc(C(C(=O)NCC2CCCO2)N(C(=O)Cn2nnc3ccccc32)c2cccc(OC)c2)ccc1O` (stereo not drawn), the cell number change turned out to be 6.72%. The AC50 under setting [1] was 0.103 µM [rising, full curve, poor fit].
As for `CN1CCN(c2ccc(NC(=O)C(C)(c3ccccc3)c3ccccc3)cc2)CC1`, the cell number change came out at 19.4%. Further, the AC50 under setting [1] was 0.58 µM [falling, single point].
`O=C(CSc1nc(-c2ccc(F)cc2)cs1)N1CCN(C(=O)c2ccco2)CC1`: the cell number change was -19.5%.
With `COc1cccc(-n2c(Cc3cc(=O)[nH]c(=O)[nH]3)nnc2SCC(=O)Nc2ccccc2)c1`, the cell number change was found to be 44%. Also, under setting [2], the AC50 was 3.66 µM [rising, single point].
As for `CCOC(=O)C1CCN(C(=O)Cn2nc(C)n3cccc3c2=O)CC1`, the cell number change is 4.72%. Besides, the concentration at half-maximal activity (AC50) under setting [1] is 29.1 µM [rising, single point].
Take `CCCCn1c(SCC(=O)Nc2cccc(OC)c2)nc2ccc(N3CCOCC3)cc2c1=O`: the AC50 under setting [1] was 0.58 µM [rising, single point].
`COc1cccc(CNC(=O)C2CCN(S(=O)(=O)c3ccc(Br)s3)CC2)c1`: the cell number change was found to be 30.2%.
Turning to `O=C(N/N=C1\SCC(=O)N1CCc1ccccc1)c1cccs1`, the cell number change is 30.2%. Besides, the half-maximal activity concentration (AC50) under setting [2] was 2.59 µM [rising, full curve]. Moreover, under setting [1], the AC50 was 2.31 µM [rising, partial curve, poor fit].
As to `Cc1ccc(S(=O)(=O)Cn2nnnc2C(C(C)C)N2CCC(O)CC2)cc1` (stereo not drawn), the cell number change came out at 6.41%. Under setting [1], the AC50 is 0.00461 µM [falling, full curve, poor fit].
For the compound `COc1cccc(C(=O)NCc2ccco2)c1OC`, the cell number change worked out at 4.69%.
For the compound `COc1ccc(OCC(=O)N2c3ccccc3CCc3ccccc32)cc1`, the cell number change turned out to be 9.52%. Also, under setting [1], the concentration at half-maximal activity (AC50) was 1.46 µM [rising, single point].
For `CCOC(=O)c1c(/N=C/C2=C(O)CC(C)(C)CC2=O)sc2c1CCCC2`, the cell number change was found to be 8.26%. The AC50 under setting [1] is 0.146 µM [falling, full curve, poor fit].
For `CCOC(=O)c1c(C)[nH]c(C(=O)COC(=O)C23CC4CC(CC(Cl)(C4)C2)C3)c1C`, the cell number change was -14.6%. For the same compound, the concentration at half-maximal activity (AC50) under setting [2] is 0.366 µM [rising, full curve]. For the same compound, the concentration at half-maximal activity (AC50) under setting [1] was 29.1 µM [rising, single point].
As for `CC(=O)NC(Cc1ccccc1F)C(=O)NC1CCN(C(=O)c2cnccn2)CC1` (stereo not drawn), the cell number change is -5.3%. Moreover, under setting [1], the AC50 was 1.03 µM [rising, full curve].
For `O=C(COc1cccc(-n2cnnn2)c1)Nc1ccc([N+](=O)[O-])cc1`, the cell number change stood at 19.4%. Further, the AC50 under setting [1] was 0.58 µM [rising, single point].
Turning to `Cc1c(Cl)cccc1NC(=O)CN(C1CCCCC1)S(C)(=O)=O`, the cell number change was -4.72%. Moreover, the AC50 under setting [1] is 29.1 µM [rising, single point].
As for `CCN(CC)S(=O)(=O)c1ccc(N2CC(C(=O)NCCc3c[nH]c4ccccc34)CC2=O)cc1` (stereo not drawn), the cell number change is -1.5%.
Turning to `COc1ccccc1NC(=O)c1sc2nc(-c3ccco3)ccc2c1N`, the cell number change was found to be 9.34%. Further, the AC50 under setting [1] is 1.3 µM [rising, partial curve].
Take `O=C(NC1CCCCC1)N(Cc1ccccc1)Cc1ccco1`: the cell number change came to 35.1%. Also, under setting [2], the AC50 was 18.4 µM [rising, single point]. Further, under setting [1], the AC50 was 0.116 µM [falling, partial curve, poor fit].
Take `CN(C)C(=O)c1ccc(NC(=O)CSc2nc3ccccc3[nH]2)cc1`: the cell number change was 22.6%.
Still for that read-out and setting: in the case of `Cc1ccc(S(=O)(=O)N(CC(O)CN2CCCCC2)c2cccc([N+](=O)[O-])c2)cc1` (stereo not drawn) it was -3.97%; in that of `CC(C)c1c(C(=O)N/N=C/c2cccc(OCc3ccccc3)c2)nnn1-c1nonc1N`, 6.78%.
Regarding `Cc1cccc(-c2nnc(SCC(=O)C(C)(C)C)n2C)c1`, the cell number change was -18.4%. Also, the AC50 under setting [1] was 32.6 µM [falling, single point].
Consider `O=C(OCC(=O)N1CCOCC1)c1ccc(F)cc1Cl`, for which the cell number change worked out at 12.2%.
For the compound `COc1cccc(OC)c1OCCCN1CCC(Cc2ccccc2)CC1`, the cell number change was -22.7%. For the same compound, under setting [1], the AC50 is 6.51 µM [rising, single point].
For `COC(=O)c1cc(OC)c(OC)cc1-n1cnc2cc(OC)c(OC)cc2c1=O`, the cell number change is -12.9%. The concentration at half-maximal activity (AC50) under setting [1] is 20.6 µM [rising, single point].
As to `O=C(NNC(=S)Nc1cccc(Cl)c1)c1ccccc1`, the cell number change was -13.9%. For the same compound, the AC50 under setting [1] is 0.116 µM [falling, full curve, poor fit].
For the compound `O=C1CC[C@H](OCc2ccccc2)CCN1[C@H](CSc1ccccc1)Cc1ccccc1`, the cell number change is -15%. Also, under setting [1], the AC50 is 0.651 µM [falling, full curve].
As for `CCOC(=O)c1c(NC(=S)Nc2ccc(F)cc2)sc2c1CCC2`, the concentration at half-maximal activity (AC50) reads like this: under setting [2], 2.06 µM [rising, partial curve]; under setting [1], 1.3 µM [rising, partial curve].
Turning to `Cn1cccc1Cc1nnc(SCC(=O)N2CCOCC2)n1-c1ccc(F)cc1`, the cell number change was -42.4%. Under setting [2], the AC50 was 13 µM [falling, partial curve, poor fit]. In addition, the AC50 under setting [1] is 23.1 µM [falling, partial curve, poor fit].
Consider `CCCCCN(C(=O)CCC(=O)OCC(=O)c1ccc(F)c(F)c1)c1c(N)n(CCCC)c(=O)[nH]c1=O`, for which the cell number change amounted to 50%. The AC50 under setting [2] is 23.1 µM [rising, single point]. In addition, the AC50 under setting [1] is 20.6 µM [rising, single point].
With `O=C(Nc1nccs1)c1ccc(S(=O)(=O)NCC2CCCCC2)cc1`, the cell number change was -28%.
Take `O=C(CN1C(=O)NC2(CCCCC2)C1=O)Nc1ccc2c(c1)OCCCO2`: the cell number change was -9.87%. Further, under setting [2], the AC50 was 0.0058 µM [falling, full curve].
Take `O=C(CN(CCc1ccccc1)C(=O)CNS(=O)(=O)c1ccc(F)cc1)NCC1CCCO1` (stereo not drawn): the cell number change was determined as 17.7%.
In the case of `CCOc1ccc(N(CC(=O)N/N=C(\C)c2cccc(NC(C)=O)c2)S(=O)(=O)c2ccccc2)cc1`, the cell number change was 9.47%. Also, under setting [1], the AC50 is 0.103 µM [rising, full curve, poor fit].
Turning to `CCCn1c(=O)[nH]c(=O)c2c(C(F)(F)F)cc(-c3ccc(C)cc3)nc21`, the cell number change is -13.3%. Moreover, the AC50 under setting [2] is 2.06 µM [falling, partial curve, poor fit]. Also, the AC50 under setting [1] is 5.17 µM [falling, single point].
Consider `CN(Cc1ccc(Cl)cc1)C(=O)c1ccc2ccccc2n1`, for which the cell number change was found to be 2.63%.
Consider `CCOc1ccc(C(C(=O)NCCOC)N(CCOC)C(=O)CCC(=O)Nc2ccccn2)cc1` (stereo not drawn), for which the cell number change was -19.7%.
Consider `COc1ccc(N2CCN(C(c3ccc4ncccc4c3)c3nnnn3C(C)(C)C)CC2)cc1` (stereo not drawn), for which the cell number change is 12.8%. Further, the AC50 under setting [1] was 0.651 µM [rising, single point].
With `COc1ccc(S(=O)(=O)Nc2ccccc2-c2nc3ccccc3[nH]c2=O)cc1`, the cell number change is 4.17%. In addition, the AC50 under setting [1] is 8.2 µM [falling, single point].
Take `CC(C)c1ccc(-c2noc(C3CCCN(S(C)(=O)=O)C3)n2)cc1` (stereo not drawn): the cell number change is -22.2%.
On the same count and under the same terms, in the case of `O=C(CSCc1cccc(Br)c1)N1CCOCC1` it was 4.74%; in that of `CCC(C)c1ccc(O)c(NC(=S)NC(=O)c2cccnc2)c1` (stereo not drawn), -6.56%.
Take `Cc1ccc(NC(=O)CS(=O)CC(=O)NC2CCN(Cc3ccccc3)CC2)c(C)c1` (stereo not drawn): the cell number change is -30.1%. In addition, the AC50 under setting [2] was 2.31 µM [falling, single point].
`CCCCCCN(C(=O)CCCCCN1C(=O)NC(c2ccc(Cl)cc2)C(C(=O)OCc2ccccc2)=C1C)C(C(=O)NCCCC)c1ccc(OCC(=O)OC)c(C(=O)OC)c1` (stereo not drawn): the cell number change was 25%. For the same compound, the AC50 under setting [1] is 14.6 µM [rising, single point].
Take `CCCCOc1ccc(N2C(=O)CC(N(CCc3ccccc3)C(=O)/C=C/C(=O)O)C2=O)cc1` (stereo not drawn): the cell number change was found to be 23.4%. Further, the half-maximal activity concentration (AC50) under setting [1] is 4.11 µM [falling, full curve, poor fit].
Take `COC(=O)Cn1cnc2c(nnn2-c2ccc(F)cc2)c1=O`: the cell number change was determined as 4.32%. Under setting [1], the AC50 was 5.8 µM [rising, full curve, poor fit].
Turning to `O=C(CSc1oc(-c2ccco2)nc1S(=O)(=O)c1ccc(F)cc1)NCC1CCCO1` (stereo not drawn), the cell number change was -19.6%. Also, under setting [1], the AC50 was 18.4 µM [falling, single point].
Regarding `CCCCN(C(=O)CC1CCCC1)c1c(N)n(CC(C)C)c(=O)[nH]c1=O`, the cell number change worked out at 18.3%. The AC50 under setting [1] was 29.1 µM [rising, single point].
For `Cc1ccc(C)c(NC(=O)C2CC(=O)N(C(C)C)C2)c1` (stereo not drawn), the cell number change was determined as 26.2%. The AC50 under setting [1] is 29.1 µM [rising, single point].
As for `CC(C)OC(=O)CSc1nnc(-c2ccc(Cl)cc2Cl)n1N`, the cell number change was determined as 14%. Moreover, the AC50 under setting [1] was 0.651 µM [falling, single point].
Take `CCOc1ccc(OCC)c(S(=O)(=O)N2CCCCC2)c1`: the cell number change is -11.2%.
In the case of `COc1ccccc1NC(=O)N(Cc1ccccc1)c1ccccn1`, the AC50 is, setting by setting: under setting [2], 6.51 µM [rising, single point]; under setting [1], 8.2 µM [rising, partial curve].
On to `CC(OC(=O)Cc1coc2cc3c(cc12)CCC3)C(=O)NC(N)=O` (stereo not drawn), for which the cell number change was 30.1%. Moreover, under setting [2], the AC50 is 9.2 µM [rising, single point].
Regarding `O=C1CCCC(O)=C1C=Nc1ccc2c(c1)oc1ccccc12`, the cell number change was 11.9%. The AC50 under setting [1] was 4.11 µM [rising, single point].
For `COc1ccc(-c2cc(=O)oc3cc(OCC(=O)NCCN4CCOCC4)ccc23)cc1`, the cell number change worked out at 29.8%.
In the case of `CCN(CC(=O)NCc1ccc(F)cc1)C(=O)c1ccc(Cl)cc1`, the cell number change was 16.7%. Besides, the AC50 under setting [1] is 2.59 µM [rising, full curve].
Regarding `CCOC(=O)CC(=O)CSc1nc2c(sc(=S)n2-c2ccc(C)c(C)c2)c(=O)[nH]1`, the cell number change is -12.7%. Moreover, under setting [2], the AC50 is 2.31 µM [rising, partial curve, poor fit].

The values above are taken from PubChem BioAssay AID2685 (National Center for Advancing Translational Sciences (NCATS), 2010).
